At least one structure is not confirmed: it was looked up by name or label, or the drawing left a doubt.
Columns and labels:
[1] = tested on: ERK kinase phosphorylation in 1205Lu TR SAMMSON cells; test: Western blot analysis of ERK kinase phosphorylation; settings: −/+100 ng/ml doxycycline 72 hours, −/+5 μM vemurafenib 24 hours
[2] = tested on: ERK kinase phosphorylation in A375 TR SAMMSON cells; test: as above; settings: −/+100 ng/ml doxycycline 72 hours, −/+5 μM vemurafenib 24 hours

CCCS(=O)(=O)Nc1ccc(F)c(C(=O)c2c[nH]c3ncc(-c4ccc(Cl)cc4)cc23)c1F [vemurafenib, Vemurafenib]
inhibition of ERK kinase phosphorylation [1]: not affected by doxycycline
inhibition of ERK kinase phosphorylation [2]: not affected by doxycycline
